# Among all 53,000 sequences or so, about 3,700 (7%) were called active.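 Rule for the calls: active = gene knockdowns whose robust z-score for IL-1 alpha signal is at least 2 or at most -2, so actives lie on both sides; inactive = the rest.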 This is one part of the list.
# Assay: Components of the Cytosolic LPS Sensing Pathway: Gene Identification via Genome-wide siRNA Screen;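 note: robust z of the log signal after scaling to non-targeting control siRNA wells of the plate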
# Details: RAW264.7 macrophages, IL-1a HTRF, actives lie on both sides, screened at 100 nM (by protocol), cells primed 5 h with Pam3CSK4 first
# In short: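 Read-out: IL-1a HTRF on supernatant, divided by plate negative-control median ×100, log-transformed and converted to robust z-score. Cells were RAW264.7 given 100 nM siRNA, Pam3CSK4-primed 5 hours, then LipidA-transfected 24 hour.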
row,Sequence,z-score
1,GGAAGUGGUGGCCAUCAAGTT against Stk25,inactive: 1.08
2,CCAUCAUGUAUCAAUGACATT against Olfr867,inactive: -1.26
3,CGUAAUUUUGGAAAAGCCUTT against Emb,inactive: 0.246
4,CGAGACCUACAUCUUGAAUTT against Smpd1,inactive: 1.12
5,GGCCAUGCCACUCAUCUUUTT against Tpst2,inactive: -1.31
6,GGACUGAAUGCAAGUGAAGTT against Mslnl,inactive: -0.379
7,GGAGACUCAGCAGAUUAUUTT against Gzmn,inactive: -0.627
8,GGCAAUGAAUUUAACAAUCTT against Zfp874a,inactive: -0.351
9,GGAUGGCCAAGUAUGAACUTT against Gpr153,inactive: -0.529
10,GCUUACAAGCUGGUAUCAUTT against Gm5134,inactive: -0.564
11,CGAUACCCUCACCAGAUUUTT against Limk1,inactive: 1.79
12,GCCUUCUGCUUAGUUACUGTT against Krtap6-1,inactive: 1.21
13,GGCUCCAGGAAACAAAGAUTT against Ubtd1,inactive: 0.206
14,GGAAGAAAGGAAAUGUUGUTT against Ctsh,inactive: -0.179
15,GGAAUCCUCUUCAGACAAATT against Hivep1,inactive: 0.818
16,GGCCUUGUAUUACCAUCGATT against Ppp1r9b,inactive: 0.0508
17,CCGUCAAAACAUUACCAUUTT against Hmcn2,inactive: -0.363
18,GGGUGUGGCUGACUUUGAUTT against Otof,inactive: -0.429
19,GAUGCAAGAUGACAAGACATT against Rgs6,inactive: -0.541
20,CCUGACAGACCGACAAGUGTT against Hoxc11,active: -2
21,GGUCCCUGUCAAGACCAAATT against Prap1,inactive: 0.921
22,GGAGUAUGCACCACUCAAATT against Acrv1,inactive: 0.795
23,CGGAAAAAUGGAAGUAUAGTT against Mrtfb,inactive: -0.687

# Laid out differently: entries from further up.
row | Sequence | z-score
19 | GAUGCAAGAUGACAAGACATT against Rgs6 | inactive: -0.541
20 | CCUGACAGACCGACAAGUGTT against Hoxc11 | active: -2

# Further entries.

row,Sequence,z-score
1,GCCAUGAGGUCUGUUCUUATT against Ubr3,inactive: -0.572
2,GCACCACUGCCUAUAUAAGTT against Acad8,inactive: -1.36
3,GGUGAAGUGAGCCUUUGUGTT against Cfhr1,inactive: -0.329
4,GGGUCUAAAGAUAUCUGUUTT against Rbm12,inactive: -0.898
5,CCAUUUGUCUAUGAAUGUGTT against Tm6sf1,inactive: -0.901
6,CGAGGAGUUGGAUUUCAGGTT against Dnmbp,inactive: -0.713
7,GCAAGGAGGUCCAACUAAGTT against Fzd8,inactive: 0.239
8,CCCUAACACUGCUACCACGTT against Zfp36l3,inactive: -0.417
9,GCCUUCCACUACCUUACGUTT against Kcnk3,inactive: 0.067
10,GCCUUAGGGAGUGUUAAAATT against Spink8,inactive: -0.304
11,GGUCCACCUGUGAAUGUGATT against Glra4,inactive: -1.1
12,GCUGUCAAAUUAACCUGUGTT against Spin2c,active: -2.31
13,GGGUGUUUGAAUCUAGUAUTT against Nktr,inactive: 1.22
14,GCUUCAGACCUAUUUACCATT against Wdr26,inactive: 0.0713
15,GACCAAGUUCAAAAUUCGATT against Lilr4b,inactive: -0.884
16,CCCUACUAUUGACGAAAACTT against Hpn,inactive: 1.66
17,CCUUAAAUGUGGACCAUAATT against Dlc1,inactive: 0.508
18,CCCUUACAUCCAUCAACUATT against Dcbld2,inactive: -1.04
19,GGCCAAAAGUGUUCUCUACTT against Olfr1101,inactive: 0.294
20,GGAAAUCAACCACUUUCUCTT against Olfr1494,inactive: -0.549
21,GGCUAUAAAAGCACAGUUUTT against Slc25a26,inactive: -0.61
22,GGAGCAGAAAGAAGAACUGTT against Bmp10,inactive: -1.79
23,GGCACAAGCCAAAGUAUUUTT against Igbp1,inactive: -0.529

# A second format for part of the listing above:
row | Sequence | z-score
22 | GGAGUAUGCACCACUCAAATT against Acrv1 | inactive: 0.795
23 | CGGAAAAAUGGAAGUAUAGTT against Mrtfb | inactive: -0.687
1 | GCCAUGAGGUCUGUUCUUATT against Ubr3 | inactive: -0.572

# The listing continues:

row,Sequence,z-score
1,GGGAAGUGACCUUCUACAGTT against Ms4a10,inactive: 0.387
2,GCAGAUUAGCUUCGUCAACTT against Top2a,inactive: -0.588
3,GCUCAUCGACGGUCACUUUTT against Enoph1,inactive: -0.00997
4,CGAACCUAAGGGUUACUAUTT against Tgfb3,inactive: 0.592
5,GGAUGGUUUCCGUAAAGCUTT against Pacsin3,inactive: -1.23
6,GGCUUGAAGUUCAUUUAUUTT against Nkiras2,inactive: -1.03
7,GGUGCAAAUGGCAGAUACATT against Olfr919,inactive: -0.873
8,GCAUUAUGGGACUAGAAGGTT against Scfd1,inactive: 1.92
9,CCUGAUAUAUGACUUUGGCTT against Ntf5,inactive: -0.734
10,GCACAGCUAUCAAUGAGCUTT against Olfr1410,inactive: -1.43
11,GCUCACAAGCAAGUGCAACTT against Olfr1352,inactive: 0.763
12,GGUGUAGAAUCUCAAUCCATT against Samd12,inactive: 0.91
13,GCAUUACUUGAGCAAAACATT against Zfp654,inactive: -0.854
14,CGACUUGACUGGUCUUAAATT against Cdk8,inactive: -0.289
15,GCAUCACGUAUGUGAUUUGTT against Dmrtc1a,inactive: -0.569
16,GCUUGGUGGGUUUGUUGAUTT against Slc28a1,inactive: -0.113
17,CAUGAACGUGGGUAAAACGTT against Rab20,inactive: -0.878
18,GCCAUUGUCACAGUCUGAATT against Phf21a,inactive: 0.627
19,GGAUCUCCCUCUAAAUAUUTT against Hsp90aa1,inactive: -0.138
20,CCAUAUUCGAGAUACUCUGTT against Dnm3,inactive: -0.53
21,GCGAGAGUCACAAAGUGCATT against Rcc1l,inactive: 1.35
22,GGAGGUCAAUGACUUCGCATT against Trip10,inactive: 0.0947

# Reference: PubChem BioAssay AID1508600 (Functional Genomics Laboratory (NCATS/FGL), 2020)
